# From PubChem BioAssay AID1347075 (National Center for Advancing Translational Sciences (NCATS), 2019)
# About 5,500 (1.4%) of roughly 400,000 compounds were called active. The shares of active, inactive and inconclusive entries below differ from those in the screen. Calls follow the shape of the dose curve; as a rule, active = well fitted cell-killing curve with a large enough effect; inconclusive = small, poorly fitted or top-dose-only effect, or effect the other way; inactive = flat fitted curve, though single readings scatter. Potencies beside an inconclusive call are fits to weak or partial responses and may not hold up.
# Assay: qHTS assay for MDR1-selective chemotherapeutics: Primary screen using the parental adenocarcinoma cell KB-3-1; also: nearly all actives have a fitted effect of over 60% in size
# Conditions: KB-3-1 viability, CellTiter-Glo ATP luminescence, 72 h; activity change, negative = cytotoxic: at 46.1 µM (top of the series)
# How it was run: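 Using CellTiter-Glo luminescence, growth of non-resistant KB-3-1 adenocarcinoma cells is assessed 72 h after pin-tool compound addition at 37 °C. Normalized responses across the concentration series yield fitted curves.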
# % is scaled to controls: 0 for no effect and ±100 for the full control effect; potency is read from the fitted curve at half-maximal effect.
Compound,Potency,"activity change, negative = cytotoxic"
N#Cc1nc(COc2ccc(-c3ccccc3)cc2)oc1NCCCN1CCOCC1,"inconclusive: 23.1 µM [cytotoxic, single point]",
COc1cccc(Nc2nc(NCCO)c3ccccc3n2)c1,"inconclusive: 10.3 µM [cytotoxic, partial curve, poor fit]",
CCCCC[C@H](C)N1C[C@@H](COCc2ccccc2)Oc2cc(N3CCC[C@H]3CO)ccc2S1(=O)=O,"inconclusive: 23.1 µM [cytotoxic, single point]",
CCCN(Cc1cc2ccc(C)cc2[nH]c1=O)S(=O)(=O)c1ccccc1,"inconclusive: 20.6 µM [cytotoxic, single point]",
Cc1ccc(NC(=O)c2cc(S(=O)(=O)N3CCCc4ccccc43)ccc2F)cc1F,active: 25.9 µM,
S=c1[nH]c(=S)c2[nH]cnc2[nH]1,"inconclusive: 25.9 µM [cytotoxic, single point]",
Cc1ccc(S(=O)(=O)N2CCOCC2)cc1C(=O)OCC(=O)NC1CCCC(C)C1C (stereo not given),"inconclusive: 23.1 µM [cytotoxic, single point]",
CSCC[C@H](NC(=O)OC(C)(C)C)C(=O)N1CCC(C(=O)NCC(=O)Nc2ccc(C)cc2)CC1,inactive,
COC(=O)c1ccc2c(=O)[nH]c(COC(=O)c3c(-c4ccccc4Cl)noc3C)nc2c1,inactive,
S=c1[nH]nc(-c2ccc(Cl)cc2)n1Cc1ccccc1,inactive,
CN1C(=O)C(C)(C)c2cc(S(=O)(=O)N3CCN(c4ccccc4F)CC3)ccc21,"inconclusive: 1.16 µM [rising, full curve]",
CC(=O)Oc1ccc(-c2ccc(C(=O)OCC(=O)N(C)CC(=O)Nc3ccccc3Cl)cc2)cc1,inactive,
O=C1/C(=C/c2cccnc2)CCC/C1=C\c1cccnc1,"inconclusive: 2.91 µM [cytotoxic, partial curve, poor fit]",
CCCCCSc1nc(N2CCOCC2)c2c(c1C#N)CC(C)(C)OC2,"inconclusive: 29.1 µM [cytotoxic, single point]",
Cc1ccccc1-n1c(SCC(=O)Nc2ccc3c(c2)OCO3)nnc1-c1ccccn1,"inconclusive: 23.1 µM [cytotoxic, single point]",
COC(=O)C1(C)CN(S(=O)(=O)c2ccc(C)cc2)c2cc(OC)ccc2C1=O (stereo not given),"inconclusive: 29.1 µM [cytotoxic, single point]",
CSc1ccccc1NC(=O)Cn1c(-c2cscn2)nc2ccccc21,inactive,
O=Cc1cc(N=Nc2cccc(C(=O)O)c2)ccc1O,"inconclusive: 5.17 µM [cytotoxic, partial curve]",
O=C1CCC(OCc2ccccc2)CCN1[C@H](CSc1ccccc1)Cc1ccccc1 (stereo not given in full),"inconclusive: 20.6 µM [cytotoxic, single point]",
O=C(Nc1ccc2c(c1)OCCO2)c1cccc2nc3ccccc3nc12,"inconclusive: 29.1 µM [cytotoxic, single point]",
Cn1c(=O)c2c(SCC(=O)NCC3CCCO3)nc(-c3cccc(F)c3)nc2n(C)c1=O (stereo not given),inactive,
COC(=O)[C@@]12C[C@@H](CC(=O)NCc3ccccc3)C(=O)N(Cc3ccccc3)C1=CCC(C)(C)C2,"inconclusive: 16.4 µM [cytotoxic, single point]",

# Filtered by structure, those above containing fluorine (3)
Compound,Potency,"activity change, negative = cytotoxic"
Cc1ccc(NC(=O)c2cc(S(=O)(=O)N3CCCc4ccccc43)ccc2F)cc1F,active: 25.9 µM,
CN1C(=O)C(C)(C)c2cc(S(=O)(=O)N3CCN(c4ccccc4F)CC3)ccc21,"inconclusive: 1.16 µM [rising, full curve]",
Cn1c(=O)c2c(SCC(=O)NCC3CCCO3)nc(-c3cccc(F)c3)nc2n(C)c1=O (stereo not given),inactive,

# Two of these compounds, reformatted.
Compound	Potency	activity change, negative = cytotoxic
S=c1[nH]c(=S)c2[nH]cnc2[nH]1	inconclusive: 25.9 µM [cytotoxic, single point]	
COC(=O)c1ccc2c(=O)[nH]c(COC(=O)c3c(-c4ccccc4Cl)noc3C)nc2c1	inactive	

# (list continues)

Compound,Potency,"activity change, negative = cytotoxic"
C=C1C(=O)c2sccc2C(c2ccc(OC)c(OC)c2)C1COC(C)=O (stereo not given),"inconclusive: 23.1 µM [cytotoxic, single point]",
COc1ccc(C2CC(=O)c3c(C)nc(N4CCN(C=O)CC4)nc3C2)c(OC)c1 (stereo not given),"inconclusive: 29.1 µM [cytotoxic, single point]",
OC1(C2(O)CC(c3ccccc3)ON2)CCCCC1 (stereo not given),"inconclusive: 29.1 µM [cytotoxic, single point]",
COc1cccc(C=C2SC(=S)NC2=O)c1,"inconclusive: 20.6 µM [cytotoxic, partial curve, poor fit]",
COc1cc2cnc(-c3ccccc3)c(-c3cccc(C(F)(F)F)c3)c2cc1OC,"inconclusive: 29.1 µM [cytotoxic, single point]",
CN(CCOc1ccc(Cl)cc1)C(=O)c1cccc(S(=O)(=O)N2CCN(c3ccc(F)cc3)CC2)c1,"inconclusive: 20.6 µM [cytotoxic, single point]",
O=S(=O)(c1ccccc1)C1Cc2ccccc2C1Cl (stereo not given),"inconclusive: 29.1 µM [rising, partial curve, poor fit]",
O=C(/C=C/c1cccc([N+](=O)[O-])c1)NC(=S)Nc1cccc(NC(=O)c2ccccc2Cl)c1,active: 16.4 µM,
Nc1nonc1-n1nnc(C(=O)N/N=C/c2ccc(OCc3ccccc3)cc2)c1CNc1ccccc1,inactive,
COc1ccc(/C=C2\SC(=S)N(CCCC(=O)N3CCOCC3)C2=O)cc1OC,"inconclusive: 18.4 µM [cytotoxic, single point]",
CN1CCC[C@H]1CCNc1ccc2c(=O)c3ccccc3n(C)c2c1,"inconclusive: 13 µM [cytotoxic, single point]",
CCOC(=O)Cc1csc(N/N=C/c2ccc(C(F)(F)F)cc2)n1,inactive,
CSc1ccccc1OCc1cc(C(=O)NC2CCOC2)no1 (stereo not given),"inconclusive: 11.6 µM [rising, partial curve]",
CCOC(=O)c1ccc(CC2S/C(=C(\C#N)C(C)=O)NC2=O)cc1 (stereo not given),"inconclusive: 18.4 µM [cytotoxic, single point]",
COc1ccccc1CNc1nc(NC(C)C)nc2ccsc12,"inconclusive: 25.9 µM [cytotoxic, single point]",
COc1cc([N+](=O)[O-])cc(/C=N/NC(=O)Cn2cncn2)c1O,"inconclusive: 20.6 µM [cytotoxic, single point]",
COc1ccc(Nc2nnc(SCC(=O)/C=C3/N(C)c4ccccc4C3(C)C)s2)cc1,"inconclusive: 29.1 µM [cytotoxic, single point]",
CCN(CC(=O)Nc1ccc2c(c1)OCO2)CC(=O)Nc1ccccc1C(F)(F)F,"inconclusive: 16.4 µM [rising, partial curve, poor fit]",
O=C(/C=C/c1ccccc1)c1ccc(NC2=NCCCS2)cc1,"inconclusive: 29.1 µM [cytotoxic, single point]",
COc1ccc(-c2nn(-c3ccccc3)cc2C(=O)NC(=S)NNC(=O)c2ccncc2)cc1,"inconclusive: 16.4 µM [cytotoxic, single point]",
Cc1ccc(/C=C2\SC(=S)N(CCCC(=O)N3CCOCC3)C2=O)cc1,"inconclusive: 23.1 µM [cytotoxic, single point]",
COc1ccc(Cl)cc1C(=O)NNC(=O)c1[nH]c(C)c(C(C)=O)c1C,"inconclusive: 13 µM [rising, partial curve]",

Compound,Potency,"activity change, negative = cytotoxic"
Cc1ccc(Cl)cc1N1CCN(C(=O)C2CCN(c3nnc(-n4cccc4)s3)CC2)CC1,"inconclusive: 32.6 µM [cytotoxic, single point]",
CNC(=S)N/N=C/c1cn(Cc2c(F)cccc2Cl)c2ccccc12,"inconclusive: 29.1 µM [cytotoxic, single point]",
COc1ccc(-c2cc(C(=O)Nc3ccc(C(N)=O)cc3)c3ccccc3n2)cc1,inactive,
Cc1n[nH]c(=S)n1/N=C/c1cccc(OCc2ccccc2)c1,inactive,
CCN1C(=O)[C@@H]2[C@@H](c3ccc(SC4CCCCC4)cc3)N3CCC[C@@]3(C(=O)OC)[C@@H]2C1=O,"inconclusive: 20.6 µM [cytotoxic, partial curve, poor fit]",
S=C(Nc1cccnc1)Nc1cccc2cnccc12,"inconclusive: 29.1 µM [rising, single point]",
Nc1ncnc2c1ncn2C1C=C(CO)C(O)C1O (stereo not given),active: 8.2 µM,
CC(=O)N[C@@H](CC(=O)O)C(=O)O,,inconclusive: -68.7%
Nc1nonc1-n1nnc(C(=O)N/N=C/c2cc(Br)ccc2O)c1CSC1=NCCS1,"inconclusive: 16.4 µM [cytotoxic, single point]",
Cc1nc(NC(=S)NC(=O)c2cccs2)ccc1Br,"inconclusive: 23.1 µM [cytotoxic, single point]",
COc1ccc(Cc2nnc(NC(=O)c3ccc(OC)c(OC)c3)s2)cc1,"inconclusive: 29.1 µM [cytotoxic, single point]",
COc1ccc(-c2cc3nc[nH]c(=O)c3s2)cc1,inactive,
Clc1ccc(C(c2nnnn2C2CCCCC2)N(Cc2cccnc2)Cc2ccco2)cc1 (stereo not given),"inconclusive: 29.1 µM [cytotoxic, single point]",
CCOC(=O)N1CCN(Cc2nc3c(c(=O)[nH]c(=O)n3C)n2CCCc2ccccc2)CC1,"inconclusive: 20.6 µM [cytotoxic, single point]",
CC1=Nc2ccccc2/C1=C/c1c(C)[nH]c2ccccc12,"inconclusive: 14.6 µM [cytotoxic, single point]",
CCc1ccc(Nc2nnc(SCC(=O)Nc3sccc3C(N)=O)s2)cc1,"inconclusive: 29.1 µM [cytotoxic, single point]",
CCOC(=O)c1cc(Br)c(=O)n2ccccc12,inactive,
Cc1ccc(/C=C2/SC(=S)N(CCC(=O)N3CCOCC3)C2=O)cc1,"inconclusive: 16.4 µM [cytotoxic, single point]",
O=C(c1cc2ccccc2o1)N1CCN(C/C=C/c2ccccc2)CC1,"inconclusive: 29.1 µM [cytotoxic, single point]",
CCCCCC1(C(=O)OCC)CC(CSC(=N)N)OC1=O (stereo not given),"inconclusive: 14.6 µM [cytotoxic, single point]",
Cc1ccc(C)n1-c1ccc(C(=O)NC2CCN(Cc3ccccc3)CC2)cc1,"inconclusive: 8.2 µM [cytotoxic, partial curve, poor fit]",
